Assay results as given in PubChem BioAssay AID2685 (National Center for Advancing Translational Sciences (NCATS), 2010).
The other results are listed elsewhere or left out. These are further read-outs of the screen, such as a control signal, another cell line or another target. No call is given for them. The list favours compounds with an active or inconclusive main result. The note in brackets gives the kind of curve behind each potency; many fits are weak.

Assay: qHTS Assay for Lipid Storage Modulators in Drosophila S3 Cells;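 for cell number change: cells counted by Cell Tracker Red CMTPX staining in the red channel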
Conditions: BODIPY lipid droplet fluorescence, 18-24 h; for cell number change: measured here: cell count max response, cells fed with added oleic acid
Procedure, shortened: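 Drosophila S3 cells got compounds at several concentrations plus oleic acid (400 uM solution). Laser-scanning cytometry with 488 nm excitation read lipid droplets at 500-530 nm and cells at 575-640 nm. Percent activity was relative to 20 uM Triacsin C.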

[1] = measured here: lipid fluorescence (Fed channel) AC50, cells fed with added oleic acid
[2] = measured here: cell number channel AC50, cells fed with added oleic acid

SMILES	cell number change	AC50 [1]	AC50 [2]
O=C(CCSCCC(=O)Nc1c(F)c(F)c(F)c(F)c1F)Nc1c(F)c(F)c(F)c(F)c1F	-13.7%		
Cc1ccc(C(=O)NCCc2c[nH]c3ccccc23)s1	11.5%	29.1 µM [falling, partial curve]	
CC(C)CC(C(=O)OCC(=O)c1c(N)n(C)c(=O)n(C)c1=O)N1C(=O)c2ccccc2C1=O (centres undefined)	-33.9%	29.1 µM [falling, single point]	
CC(=O)/C=C\c1cn(-c2ncc(C(F)(F)F)cc2Cl)c2ccccc12	-6.45%	6.51 µM [falling, single point]	
CC(C)(C)n1nnnc1C(c1ccncc1)N1CCCCCC1 (centres undefined)	4.97%	0.00461 µM [rising, full curve, poor fit]	
Cc1nnc(NC(=O)CCSCCC(=O)Nc2nnc(C)s2)s1	-22.6%	2.59 µM [falling, partial curve]	
O=c1[nH]c(CNCc2cccnc2)nc2ccccc12	-1.54%		0.116 µM [falling, full curve, poor fit]
COc1ccc(C(=O)Nc2c(Cl)cc(Cl)cc2C(=O)N2CCOCC2)cc1	1.59%	0.13 µM [falling, full curve]	
CN(CC(=O)Nc1cc(S(=O)(=O)N2CCCCCC2)ccc1Cl)Cc1ccc2c(c1)OCO2	24.6%	18.4 µM [rising, single point]	
Cn1c(CNC(=O)CNC(=O)c2ccc(C(C)(C)C)cc2)cc(=O)n(C)c1=O	33.4%		
CN1CCN(C(=O)CC23CC4CC(CC(C4)C2)C3)CC1	-23.5%	0.00164 µM [falling, full curve, poor fit]	
CC1=C(C(=O)Nc2ccc(C)cc2C)C(c2cccc([N+](=O)[O-])c2)n2nc(C(=O)OC(C)C)nc2N1 (centres undefined)	-21%	4.11 µM [falling, single point]	
COc1ccc2c(c1)c1nc3n(c(=O)c1n2CC(=O)Nc1ccccc1)CCS3		0.116 µM [rising, single point]	
COc1ccc(NC(=O)CSc2nnnn2-c2ccc(OC)cc2)cc1	10.5%		
Cc1ccc(CNC(=O)CSc2nnc(CNC(=O)c3ccccc3)o2)cc1	-48.7%	12.6 µM [falling, partial curve]	11.2 µM [falling, single point]
CCOC(=O)C1=C(c2ccccc2)NC(=S)NC1c1ccc(Cl)cc1 (centres undefined)	25.8%	2.06 µM [rising, partial curve]	0.92 µM [rising, full curve, poor fit]
N#C/C(=C\c1ccco1)c1nc2ccccc2s1	-6.17%	14.6 µM [falling, partial curve, poor fit]	
CC(C)c1nc(SCC(=O)c2ccc(F)cc2)c2ccccc2n1	4.13%	2.06 µM [rising, partial curve, poor fit]	
COc1cc(C)ccc1OCCOCCOc1ccc(C)cc1[N+](=O)[O-]	-35.9%	14.6 µM [rising, single point]	32.6 µM [falling, single point]
COc1ccc(N2CCN(CCCNS(=O)(=O)c3c(C)noc3/C=C/N(C)C)CC2)cc1	30.6%		32.6 µM [rising, single point]
CCCn1c(CC)nc([N+](=O)[O-])c1S(=O)(=O)c1ccccc1	-38%	9.2 µM [falling, partial curve]	16.4 µM [falling, single point]
CCc1nnc(NC(=O)c2nc3nc(C)cc(C)n3n2)s1	-15.6%	23.1 µM [falling, single point]	
CC(C)CN(C(=O)c1cccc(S(=O)(=O)N2CCN(c3ccc(F)cc3)CC2)c1)C1CCS(=O)(=O)C1 (centres undefined)	92.5%		18.4 µM [rising, partial curve]
CCOC(=O)c1ccc(Nc2nnc(C)c3ccccc23)cc1	20.6%		1.3 µM [rising, full curve, poor fit]
COCCCN1Cc2cccc(C(=O)O)c2C1=O	35.1%		0.103 µM [rising, full curve, poor fit]
O=C(O)Cc1ccc2[nH]c3ccc(CC(=O)O)cc3c2c1	16.4%	29.1 µM [rising, single point]	
Nc1c(C(=O)O)nnn1Cc1ccccc1	-44.5%	16.4 µM [rising, partial curve, poor fit]	11.6 µM [falling, partial curve, poor fit]
Cc1ccc(NC(=O)CN2C(=O)COc3ccc(S(=O)(=O)N4CCOCC4)cc32)cc1F	25.5%	2.59 µM [rising, partial curve]	
O=C(c1ccc(COc2ccc(Cl)cc2)cc1)N1CCCCC1	24.3%		0.184 µM [rising, full curve, poor fit]

2 entries from above, as labelled records:
CCOC(=O)c1ccc(Nc2nnc(C)c3ccccc23)cc1
  cell number change: 20.6%; AC50 [2]: 1.3 µM [rising, full curve, poor fit]
COCCCN1Cc2cccc(C(=O)O)c2C1=O
  cell number change: 35.1%; AC50 [2]: 0.103 µM [rising, full curve, poor fit]
